{"source": "paper PMC8834003", "molecular_target": "T1, mouse sperm-associated antigen 6-like (SPAG6L), the evolved gene on chromosome 16 (mouse) (UniProt Q9JLI7)", "T1 sequence": "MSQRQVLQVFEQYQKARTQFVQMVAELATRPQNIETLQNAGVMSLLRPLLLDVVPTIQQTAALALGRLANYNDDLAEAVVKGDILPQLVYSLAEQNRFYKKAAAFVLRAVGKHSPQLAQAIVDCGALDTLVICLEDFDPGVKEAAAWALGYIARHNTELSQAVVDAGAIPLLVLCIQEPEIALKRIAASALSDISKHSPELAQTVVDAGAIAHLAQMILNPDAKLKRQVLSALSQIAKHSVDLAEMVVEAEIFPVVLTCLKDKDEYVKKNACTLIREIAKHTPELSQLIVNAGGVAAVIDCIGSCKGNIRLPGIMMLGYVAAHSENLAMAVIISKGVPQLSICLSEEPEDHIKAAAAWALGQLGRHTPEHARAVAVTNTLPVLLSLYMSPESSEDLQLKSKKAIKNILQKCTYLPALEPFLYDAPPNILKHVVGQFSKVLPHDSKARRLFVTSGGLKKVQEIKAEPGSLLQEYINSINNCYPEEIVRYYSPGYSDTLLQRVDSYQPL", "test": "two-hybrid; direct yeast two-hybrid assay; indicated pGBK-T7 and pGAD-T7 plasmids transformed into AH109 yeast; growth on non-selection medium (SD-2) and selection medium (SD-3)", "note": "No constants are given. Whether binding was seen depends on the method and setting.", "data": [{"binder": "mouse Ccdc103 (protein, UniProt Q9D9P2 1-237) MEKNDVINFKALEKELQAALAADEKYKRENAAKLRAVEQRVPSYEEFRGIVLASHLKPLEQKDKMGGKRFVPWNCHTTRERTSQDVVTEIPQEKSPFQPTTSAEFYRDWRRHLRSGPERYQALLQLGGPKLGHLFQMDVGFGLLGELLVALAEHARLSDRTAVLGILHSLANTGRFNLNLSLLSHAERESCQRLFQKLQAMSTTRPMQEGLTVEEPSAGLQGEEGLLQELLELYGVH", "values": [{"measurement": "binding", "result": "no binding"}]}]}
